Values from PubChem BioAssay AID504784 (Drosophila RNAi Screening Center, 2011)

Purpose: 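Search for regulators of lipid droplet storage in oleate-fed fly cells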 (primary screen)
Cells: Drosophila Kc167 embryonic cells
Knock-down reagent: long dsRNA against Drosophila genes, about 250 ng dsRNA per well
Timing: 4 days
Conditions: cells fed 400 µM oleic acid bound to BSA
Read-out: 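Microscope images give a droplet-to-nucleus area ratio, taken as log and converted to a screen-wide B-score; higher values mean greater lipid storage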
Reading the numbers: droplet/nuclear area B-score: higher = more stored lipid (overstorage)
The screen tested about 17,000 reagents; below is an unselected part of those that have a named target and a result. 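Each column is one replicate's B-score; the combined score over replicates was not deposited, so single values may mislead.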 Names joined by + are all predicted targets of the reagent. Reagent sequences are not shown.

gene knocked down	dsRNA	droplet/nuclear area B-score, replicate 1	droplet/nuclear area B-score, replicate 2	droplet/nuclear area B-score, replicate 3
Gprk1	DRSC20732	-0.0925	-0.511	
Gprk1	DRSC20916	-0.181	-2.27	
Mlp84B	DRSC12596	0.416	1.97	
CG9981	DRSC20225	0.0284	-0.0435	
CG12991	DRSC19511	-0.482	-1.07	
CG14195	DRSC19550	-2.02	0.0533	
MED7	DRSC16059	-0.28	0.0254	
Gapdh1	DRSC07433	-1.23	-0.985	
lncRNA:CR30055	DRSC22439	-0.431	-1.8	
Brf	DRSC14166	0.441	-0.432	
Brf	DRSC14167	-0.195	-0.21	
Stam	DRSC03444	-0.358	0.171	
CG7272	DRSC10795	1.71	-0.818	
NiPp1	DRSC07307	0.0585	0.593	
Trmt6	DRSC03272	1.04	-2.34	
beat-Ia	DRSC03489	0.349	-0.443	
Octbeta1R	DRSC16134	0.0359	0.304	
CG3165	DRSC00573	-0.544	1.07	
Phm	DRSC04639	-0.0849	0.062	
Neb-cGP	DRSC17991	0.761	-1.12	-0.00732
CG31867	DRSC03338	0.378	-1.8	
CG11400	DRSC06070	-1.69	2.73	
RpS2	DRSC03614	1.29	-0.728	
CG18539	DRSC06766	-2.27	-0.672	
CG10211	DRSC02027	-0.662	-0.928	
Lcp65Ab2 + Lcp65Ab1	DRSC10340	0.00864	-0.847	
Lcp65Ab2 + Lcp65Ab1	DRSC10343	0.659	0.18	
Est-6	DRSC11162	-0.216	0.565	
tey	DRSC11042	-0.761	-0.145	0.384
tey	DRSC21709	-1.65	2.17	
CG4570	DRSC15602	-0.0184	1.49	
Ssk	DRSC10756	0.097	-1.18	-0.206
CG9837	DRSC16573	0.313	-0.225	
CG34327	DRSC19517	1.01	-1.27	
CG34327	DRSC22380	-0.096	-1.63	
SerRS	DRSC00496	0.244	1.78	
lola	DRSC05220	-1.29	-1.36	
lola	DRSC05221	-0.406	-0.195	
lola	DRSC05222	-0.653	0.694	
lola	DRSC05223	-0.0131	1.07	
lola	DRSC05224	-1.33	-1.46	
lola	DRSC06738	1	3.52	
lola	DRSC06739	0.616	1.18	
lola	DRSC06740	-3.41	-2.28	
lola	DRSC06741	0.695	0.608	
lola	DRSC06742	2.58	3.65	
lola	DRSC07646	0.434	0.48	
lola	DRSC07647	1.75	1.64	
CG4452	DRSC10422	-1.63	-0.683	
CG11498	DRSC14315	-1.63	-0.00527	
toy	DRSC17222	-1.42	1.36	
Prosalpha4T2	DRSC04643	0.576	-0.514	
CG34234 + Dh44-R2	DRSC07278	-0.208	-0.452	
CG8229	DRSC07114	-0.217	0.35	
Itgbn	DRSC03493	0.248	0.134	
scramb2	DRSC08543	-0.104	0.0702	
MED16	DRSC04506	1.53	0.123	
TTLL3A	DRSC02143	-0.503	0.0116	
CG13160	DRSC06284	0.607	1.61	
Uch-L5R	DRSC19825	0.121	-0.00199	-2.01
CG8369	DRSC16413	-0.9	0.333	
CG34276	DRSC15811	-0.334	-1.09	
CG13737	DRSC10064	0.0698	1.51	
CG9132	DRSC20159	-0.966	-1.83	
Mhcl	DRSC13130	0.855	0.338	
Mhcl	DRSC14216	-0.36	-1.04	
Mhcl	DRSC16753	-0.0224	0.000747	
Cyp12a4	DRSC16620	-0.74	-0.377	
yellow-g2	DRSC08338	0.196	-1.27	
CG8490	DRSC07194	0.411	0.389	
CG13358	DRSC18534	0.536	1.61	
CG14421	DRSC17918	1.04	-0.533	
CG4653	DRSC19909	-0.00988	-1.01	5.88
CG4653	DRSC22857	-0.947	-1.07	
Gpo3	DRSC01978	-1.22	0.0995	
lncRNA:CR41601	DRSC22158	0.287	0.983	
CG42262 (retired record)	DRSC17628	1.52	0.0267	
CG42262 (retired record)	DRSC17974	0.88	-0.549	-0.67
brwl	DRSC01080	-0.742	-1.98	
brwl	DRSC02729	-0.501	-1.78	
CG13692	DRSC00361	0.713	-0.2	
MFS18	DRSC00452	-0.772	1.12	
CG5516	DRSC15826	0.00177	-0.0832	
CG5516	DRSC21753	0.413	1.56	
GluRIA	DRSC11176	0.787	0.466	
Obp47a	DRSC06255	-0.26	-1.75	
Dci	DRSC08360	-0.771	0.0445	
Eip75B	DRSC11161	-2.52	2.6	1.35
Eip75B	DRSC23047	-0.711	1.36	
CG12491 + CG34105	DRSC04008	0.191	0.274	
CG12491 + CG34105	DRSC04124	-0.521	1.21	
Cdk7	DRSC18451	0.163	0.438	
Cdk7	DRSC23327	0.00315	0.427	
CG6901	DRSC16129	4.4	1.83	
CG7218	DRSC16216	0.674	0.596	
CstF50	DRSC15434	0.174	8.29	
Lcp65Ae	DRSC11212	-1.09	-1.35	
Sms	DRSC10408	1.72	1.11	
Polr2M	DRSC15513	0.49	-0.786	
CG30060	DRSC05419	-0.604	1.55	
Obp83a	DRSC12362	-0.0506	0.277	
Jhbp11	DRSC15183	-2.1	-0.75	
CG32554	DRSC22713	-0.45	-0.186	
mtgo	DRSC02245	-0.0398	-0.00552	-2.98
mtgo	DRSC02246	3.26	0.0102	0.457
mtgo	DRSC02769	3.61	-1.64	
mtgo	DRSC21392	1.51	3.13	
mtgo	DRSC21743	1.64	2.06	

No new results follow: entries from further up.
gene knocked down	dsRNA	droplet/nuclear area B-score, replicate 1	droplet/nuclear area B-score, replicate 2	droplet/nuclear area B-score, replicate 3
CG4452	DRSC10422	-1.63	-0.683	
CG11498	DRSC14315	-1.63	-0.00527	
toy	DRSC17222	-1.42	1.36	
Prosalpha4T2	DRSC04643	0.576	-0.514	
CG34234 + Dh44-R2	DRSC07278	-0.208	-0.452	
CG8229	DRSC07114	-0.217	0.35	
Itgbn	DRSC03493	0.248	0.134	
scramb2	DRSC08543	-0.104	0.0702	
MED16	DRSC04506	1.53	0.123	
TTLL3A	DRSC02143	-0.503	0.0116	
CG13160	DRSC06284	0.607	1.61	
